Screening data, single-dose tests

A: 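Phenotypic screen: M. tuberculosis growth, cholesterol and DPPC medium, 4 days; the read-out is not stated. Compounds at 50 µM. Direction is inferred from retests: higher values go with more growth inhibition. About 69,000 compounds were tested under these conditions; 0.54% (about 370) showed 50% or more at least once.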
B: 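Phenotypic screen: M. tuberculosis growth, glucose 7H9 medium, 3 days; the read-out is not stated. Concentration: 50 µM. Direction is inferred from retests: higher values go with more growth inhibition. About 69,000 compounds were tested under these conditions; 1.1% (about 760) showed 50% or more at least once.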

Each number is a percent effect as filed. The record does not define 0% and 100%; most values in the screen are far below 50% and negative numbers occur (in some assays of this library far below -100). Compounds were drawn at random from those tested, without regard to their results. Two or more numbers in one place are separate tests of the same structure; such repeats can differ widely.

{"compound": "Cc1sc(Br)cc1S(=O)(=O)NCc1ccccn1", "A": 7.208, "B": 50.74}
{"compound": "CCOc1cccc(NC(=O)c2cnc(C)cn2)n1", "A": -4.227, "B": -2.994}
{"compound": "CCOCCCNc1nc(O)cc(C2CC(=O)N(C)C2)n1", "stereo": "configuration not stated", "A": -3.656, "B": 3.664}
{"compound": "CN1CCCCC1c1ncc2c(n1)CCN(Cc1ccccc1Cl)C2", "stereo": "configuration not stated", "A": 12.76, "B": 43.89}
{"compound": "CS(=O)(=O)c1ccc(OCCNCc2ccc(F)cc2)cc1", "A": "1.855 and 2.616", "B": -37.04}
{"compound": "O=C(Nc1ccccc1OC1CCOC1)c1[nH]nc2c1CCCC2", "stereo": "configuration not stated", "A": 37.13, "B": 50.7}
{"compound": "COCCOCCNC(=O)c1ccc(N2CCC(C)=N2)cc1", "A": -11.85, "B": -57.57}
{"compound": "COC(=O)c1cc2c(=O)[nH]c(=O)n(CCc3ccccc3)c2nc1C", "A": 9.288, "B": 2.203}
{"compound": "Cc1ccnc(NC(=O)C2CCN(CCCn3ccnc3)CC2)c1", "A": 2.714, "B": 19.46}
{"compound": "CC(NC(=O)c1cccc(CN2CCN(C)CC2)c1)c1ccccn1", "stereo": "configuration not stated", "A": -15.64, "B": -6.486}
{"compound": "Cn1cc(C(O)CNC(=O)c2ccc(F)cc2Cl)cn1", "stereo": "configuration not stated", "A": -0.4124, "B": -6.848}
{"compound": "O=C(O)C(F)(F)F.[H][C@@]12COC[C@]1(CN(C)C)CN(C(=O)c1cc(C)c(C)s1)C2", "A": 5.865, "B": "-13.23 and -0.3649"}
{"compound": "Cc1noc(C)c1CN1CC2(CCN(C(=O)c3c[nH]cn3)C2)CC1=O", "stereo": "configuration not stated", "A": -21.08, "B": -23.99}
{"compound": "Cc1ccc(OCc2cccc(C(=O)N(C)CCC#N)c2)cn1", "A": -14.44, "B": -2.56}
{"compound": "CN(C)C(=O)Cn1cnc2c(Br)cccc2c1=O", "A": -20.23, "B": -13.25}
{"compound": "CC(C)NC(=O)Cn1cc(-c2ccccc2)cn1", "A": 15.53, "B": -0.2944}
{"compound": "CC(Cn1cccn1)NC(=O)NCCCN1CCc2ccccc21", "stereo": "configuration not stated", "A": 17.74, "B": "-0.9286 and 3.54"}
{"compound": "CCc1nc(CCNC(=O)Nc2ccc(C(=O)NC)cc2C)cs1", "A": -26.82, "B": 18.52}
{"compound": "CN(C(=O)CN1CCOC(Cn2cccn2)C1)c1nccs1", "stereo": "configuration not stated", "A": -5.496, "B": 12.09}
{"compound": "O=C1CCCN1CCCN1CCCC(Cn2cncn2)C1", "stereo": "configuration not stated", "A": -8.717, "B": "-34.41 and -6.956"}
{"compound": "Cc1nc(C)n(CC2CCCN2Cc2nc3ccccc3c(=O)[nH]2)n1", "stereo": "configuration not stated", "A": -44.68, "B": -31.98}
{"compound": "CCC1CN(C(=O)c2ccccc2C(C)=O)CCN1C(C)C", "stereo": "configuration not stated", "A": -5.122, "B": "8.637 and -5.755"}
{"compound": "CC(C)(CO)CNC(=O)c1cc(-c2cc[nH]n2)n2ccccc12.O=C(O)C(F)(F)F", "A": 3.065, "B": 45.8}
{"compound": "O=C1CC2(CCN(c3nncs3)C2)CN1c1cccc(F)c1", "stereo": "configuration not stated", "A": -10.3, "B": 8.735}
{"compound": "O=S(=O)(c1ccc2c(c1)OCCO2)N1CCC(OCc2ccccn2)C1", "stereo": "configuration not stated", "A": -15.13, "B": 2.35}
{"compound": "O=C(c1ccnnc1)N1CC2(CCN(c3ncccn3)C2)C1", "A": 11.52, "B": "-19.02 and -5.245"}
{"compound": "O=C(O)C(F)(F)F.[H][C@@]12OCCC[C@]1([H])N(Cc1ccc(OC)cc1)C[C@@H]2N1CCCC1=O", "A": 0.7732, "B": "-3.432 and -12.05"}
{"compound": "CC(=O)N1CCC(NC(=O)c2ccc3c(c2O)OC(C)(C)C3)CC1", "A": 7.764, "B": 6.684}
{"compound": "CCN(CC)c1ccc(CNC(=O)c2cccc(C)n2)cn1", "A": -40.11, "B": -43.17}
{"compound": "O=c1[nH]c(CCN2CCCC(Cn3cncn3)C2)nc2ccccc12", "stereo": "configuration not stated", "A": 12.32, "B": 26.5}
{"compound": "O=C(O)c1cc(S(=O)(=O)Nc2cnn(C3CCOCC3)c2)ccc1F", "A": -0.912, "B": 13.18}
{"compound": "O=C(c1ccnn1COc1ccc(Cl)cc1)N1CCCC1", "A": -3.529, "B": "83.89 and 8.065"}
{"compound": "Cc1cccc(CNc2n[nH]c(C)n2)c1", "A": 10.36, "B": 15.02}
{"compound": "Cc1noc(C)c1CCN1CCCC1c1nc2cc(F)ccc2[nH]1", "stereo": "configuration not stated", "A": 6.662, "B": 10.11}
{"compound": "O=C(c1cc(Cl)c[nH]1)N1CCN(CCc2ccccn2)CC1", "A": 3.369, "B": 19.26}
{"compound": "Cc1cccc(C2(C(=O)NCC3CN(C)CCO3)CC2)c1", "stereo": "configuration not stated", "A": -8.272, "B": 24.19}
{"compound": "O=C(c1cocn1)N1CCC[C@]2(C[C@@H](Oc3ncccc3F)CO2)C1", "A": 5.706, "B": -17.88}
{"compound": "CCC(=O)NCC(=O)NC(C)c1sc(-c2ccccc2F)nc1C", "stereo": "configuration not stated", "A": 10.71, "B": -10.19}
{"compound": "COc1cc2c(cc1OC)S(=O)(=O)N(Cc1cc(C)on1)C2=O", "A": -9.255, "B": 11.93}
{"compound": "[H][C@@]12CCC(=O)N(CCC3=CCCCC3)[C@]1([H])CCN(C1CCN(C)CC1)C2", "A": "1.865 and 10.68", "B": 12.51}

Once more, the final 5:

* Cc1cccc(C2(C(=O)NCC3CN(C)CCO3)CC2)c1 (configuration not stated) : A: -8.272%; B: 24.19%
* O=C(c1cocn1)N1CCC[C@]2(C[C@@H](Oc3ncccc3F)CO2)C1 : A: 5.706%; B: -17.88%
* CCC(=O)NCC(=O)NC(C)c1sc(-c2ccccc2F)nc1C (configuration not stated) : A: 10.71%; B: -10.19%
* COc1cc2c(cc1OC)S(=O)(=O)N(Cc1cc(C)on1)C2=O : A: -9.255%; B: 11.93%
* [H][C@@]12CCC(=O)N(CCC3=CCCCC3)[C@]1([H])CCN(C1CCN(C)CC1)C2 : A: 1.865% and 10.68%; B: 12.51%

The values are deposited in ChEMBL (CHEMBL3988442, “University of Dundee, Small-Polar-MMV Screening Library” (2021)).